Some of the results follow.
Target: OsWRKY34 (Oryza sativa, UniProt Q0JBA9 1-250)
Experiment: protein-binding microarray (RPBM); PBS, 2% BSA, 51.3 ng/ul salmon testes DNA, 50 uM zinc acetate, 200 nM TF, 25 C, 1 h; high values mean tight binding
Details: protein: recombinant; tags: N-terminal polyhistidine and DsRed monomer fusion (pET32a); label: CyDye5-dUTP incorporated in the synthesized complementary strand; 3' TTTTT single-stranded linker to array surface; dsDNA, one strand shown
How it was run: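 Binding signal is reported as fluorescence intensity per feature (arbitrary units) from an Axon 4000B scanner. Incubation used 200 nM of each Ni–NTA-purified, N-terminally polyhistidine- and DsRed-fused transcription factor from E. coli BL21-CodonPlus on a double-stranded custom Agilent array for 1 h at 25 °C, with 50 µM zinc acetate in the buffer, followed by washing.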

Amino acid sequences for entries named in this document (tags omitted).
UniProt Q0JBA9, entry or part of it: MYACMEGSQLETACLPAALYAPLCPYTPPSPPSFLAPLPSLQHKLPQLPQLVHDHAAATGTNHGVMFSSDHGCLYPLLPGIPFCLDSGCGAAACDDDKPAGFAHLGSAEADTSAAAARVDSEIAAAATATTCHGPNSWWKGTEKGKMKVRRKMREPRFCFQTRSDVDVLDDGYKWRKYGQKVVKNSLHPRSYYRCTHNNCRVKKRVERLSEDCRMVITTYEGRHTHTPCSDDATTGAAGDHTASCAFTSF

For “CCGCCCACCTACCCGACTACCCGAGGCAGCCTCTCTCTCCCGGAGTCACCTAGTGCAG”, which binding signal is on record?
The binding signal was 8730 fluorescence intensity (a.u.).

With “AATTTGAAACAGTTTGATTTTGACTGAAGTCAAAACGACTCGGAGTCACCTAGTGCAG” as the sequence, how does the binding signal read?
The binding signal was 9500 fluorescence intensity (a.u.).

With “TTAGATGATTTGTTTGCTTACTTCCATTCTAGCAGATAGACGGAGTCACCTAGTGCAG” as the sequence, how does the binding signal read?
The binding signal was 10600 fluorescence intensity (a.u.).

“GCAAAAAATACAGTTGTTTCTCCCGTTCTTGTTCACGGTCCGGAGTCACCTAGTGCAG” was tested. Which binding signal did it give?
Its binding signal is 8420 fluorescence intensity (a.u.).

For “TCCTTTCACTTGCTTGCTCTTTGTGTACATCTTTCGCCGGCGGAGTCACCTAGTGCAG”, which binding signal is on record?
Its binding signal is 12300 fluorescence intensity (a.u.).

How did the binding signal turn out when “CATCCCCACCCTCGCCGCTGCTGCCGCCGCCGTCGCCGCCCGGAGTCACCTAGTGCAG” was run?
Its binding signal is 8910 fluorescence intensity (a.u.).

How did the binding signal turn out when “TAGCATGAATTGCTTGTTGTACCATCCATTTTCCGTTGACCGGAGTCACCTAGTGCAG” was run?
Its binding signal is 11500 fluorescence intensity (a.u.).

For “GCCGCCGCCGTCGCTGTCTCCCGCGCCCGGCCGGACGGCCCGGAGTCACCTAGTGCAG”, which binding signal is on record?
Its binding signal is 10300 fluorescence intensity (a.u.).

For “CGAATCCCCGCCGTCTCCTCGCTCCGTGCGCATCCTCCCTCGGAGTCACCTAGTGCAG”, which binding signal is on record?
Its binding signal is 8200 fluorescence intensity (a.u.).

With “TGCTGCTAGGGTTTGTAGGGTGGTTCGCTCGGTGGGTGGTCGGAGTCACCTAGTGCAG” as the sequence, how does the binding signal read?
Its binding signal is 8750 fluorescence intensity (a.u.).

“AACCGCCATCCAAAACCGTCCAGGGAGTCAAATTACACTGCGGAGTCACCTAGTGCAG” was tested. Which binding signal did it give?
The binding signal was 8110 fluorescence intensity (a.u.).

“GTGTTTACTTCACTTTGCTCGTTTACTTCGATCGGTCTCGCGGAGTCACCTAGTGCAG” was tested. Which binding signal did it give?
Its binding signal is 12900 fluorescence intensity (a.u.).

For “TCGATGTATATGGGCCTCGCGTTTGTTTCGGCCTGTTTACCGGAGTCACCTAGTGCAG”, which binding signal is on record?
The binding signal was 9040 fluorescence intensity (a.u.).

Which binding signal does the source give for “TAATGGATCTTCGCTTTCTGTTTTGTGCTGTTGTTGTCTTCGGAGTCACCTAGTGCAG” here?
The binding signal was 10700 fluorescence intensity (a.u.).

Which binding signal does the source give for “TGCTTACTACTGATAATATCCGCTTTGCTAATTGCTAGCACGGAGTCACCTAGTGCAG” here?
Its binding signal is 8350 fluorescence intensity (a.u.).

Which binding signal does the source give for “TACACGCTCGGCTCCCGACCCGGCACCGGCGACGACTTCCCGGAGTCACCTAGTGCAG” here?
Its binding signal is 8280 fluorescence intensity (a.u.).

“TCCGCTCCGTTTTCATCTCCGTATTGGCTCCGTTCTCATCCGGAGTCACCTAGTGCAG” was tested. Which binding signal did it give?
The binding signal was 13700 fluorescence intensity (a.u.).

“CCTACTGTGTCCTTACTACTCATGATGACACGCGTTTTCTCGGAGTCACCTAGTGCAG” was tested. Which binding signal did it give?
The binding signal was 13700 fluorescence intensity (a.u.).

“AGCTGTCAGCCCGCCGCGCCCACCTACCCGCGTCCACGCGCGGAGTCACCTAGTGCAG” was tested. Which binding signal did it give?
The binding signal was 11000 fluorescence intensity (a.u.).

“ACACATTGCCATGATCGAGCTCATGATCACCTTCCATCCGCGGAGTCACCTAGTGCAG” was tested. Which binding signal did it give?
The binding signal was 8660 fluorescence intensity (a.u.).

“GGTCCCACTCGTCATAATCTCTGTTTGGCCATAATTGGAACGGAGTCACCTAGTGCAG” was tested. Which binding signal did it give?
Its binding signal is 10500 fluorescence intensity (a.u.).

How did the binding signal turn out when “TCCTTCTCAACCTCCTCCTATTCTCTCTCTCTCTCTCTCTCGGAGTCACCTAGTGCAG” was run?
The binding signal was 8590 fluorescence intensity (a.u.).

How did the binding signal turn out when “GCCTGGCTAGCACCGTCATTACGTCAACCGCTGACGTCAGCGGAGTCACCTAGTGCAG” was run?
Its binding signal is 9560 fluorescence intensity (a.u.).

With “CGGTCGCATCACTCCTTTCCCACGCCCCACGCCCTCGAAGCGGAGTCACCTAGTGCAG” as the sequence, how does the binding signal read?
Its binding signal is 8210 fluorescence intensity (a.u.).

With “CAGAGGCGGTCAAGTGTGGTGCGGTGCGATGGCAGCGGGGCGGAGTCACCTAGTGCAG” as the sequence, how does the binding signal read?
The binding signal was 8510 fluorescence intensity (a.u.).

How did the binding signal turn out when “TATCTACCGTCTCGCCTATTCAGATTCGTAACGAGTCTTCCGGAGTCACCTAGTGCAG” was run?
Its binding signal is 8590 fluorescence intensity (a.u.).

“CACCGAAATGCTCACATCTCACCCGAAAATTTTGTTTTTTCGGAGTCACCTAGTGCAG” was tested. Which binding signal did it give?
Its binding signal is 10300 fluorescence intensity (a.u.).

How did the binding signal turn out when “ATGTGTCTCTTTTACTGCCATATGTATCAACCAATCGATTCGGAGTCACCTAGTGCAG” was run?
The binding signal was 9920 fluorescence intensity (a.u.).

With “CTCGAGGTAGGGTTTCGAGCTCAGATTTGGGTGTTTCTCTCGGAGTCACCTAGTGCAG” as the sequence, how does the binding signal read?
Its binding signal is 8290 fluorescence intensity (a.u.).

“CCAAGGGTGGGGCCTCTCGTCGTCTCGTCTCCTCTCGTCTCGGAGTCACCTAGTGCAG” was tested. Which binding signal did it give?
The binding signal was 20400 fluorescence intensity (a.u.).

With “GCTTTAACCTTCGGATCAATGCTTGTTCTATCATCTCATTCGGAGTCACCTAGTGCAG” as the sequence, how does the binding signal read?
Its binding signal is 9560 fluorescence intensity (a.u.).

With “CTTCCTCTTCCATTCCGTGTTTATCCTGTCATCTCTTCCACGGAGTCACCTAGTGCAG” as the sequence, how does the binding signal read?
Its binding signal is 8480 fluorescence intensity (a.u.).

With “ATCTTTTCAATGTATTGCGCTTCACTATCTCAGCCATTCCCGGAGTCACCTAGTGCAG” as the sequence, how does the binding signal read?
The binding signal was 9320 fluorescence intensity (a.u.).

For “ATATGCGTTCATCCATGCTCCATCTCCATCTCCAGCTTAACGGAGTCACCTAGTGCAG”, which binding signal is on record?
The binding signal was 8050 fluorescence intensity (a.u.).

For “TGTTCTGCACTAACAGCCGTGCCAGTGTCACCTAATTATCCGGAGTCACCTAGTGCAG”, which binding signal is on record?
The binding signal was 9120 fluorescence intensity (a.u.).

With “GCCACGTGTCAATCCTGTGGTTCGGTTTCGTGGCGGTTGCCGGAGTCACCTAGTGCAG” as the sequence, how does the binding signal read?
Its binding signal is 8730 fluorescence intensity (a.u.).

How did the binding signal turn out when “ACCTGTAATGCATATTTTCCCAGTTTCTCAATCATGAAGCCGGAGTCACCTAGTGCAG” was run?
Its binding signal is 9610 fluorescence intensity (a.u.).

“AGTTGTTGTGTTTCTTTTTGTTTTCGAAATTTACTCGGAACGGAGTCACCTAGTGCAG” was tested. Which binding signal did it give?
The binding signal was 9440 fluorescence intensity (a.u.).

“CAAAAAATATCTAATGTTATATCGCTACTCCTTTTTTTTTCGGAGTCACCTAGTGCAG” was tested. Which binding signal did it give?
Its binding signal is 9010 fluorescence intensity (a.u.).

Which binding signal does the source give for “TCCAAGAAAATATTTCCGAATTCGTTTCCGTTTTCGAAAACGGAGTCACCTAGTGCAG” here?
Its binding signal is 8060 fluorescence intensity (a.u.).

How did the binding signal turn out when “GCATTTTATTTTCTTTTCTGAAACCTTTATATCATTTTTTCGGAGTCACCTAGTGCAG” was run?
Its binding signal is 11300 fluorescence intensity (a.u.).

Which binding signal does the source give for “TTGTAGTAGATTTTGTTGGTTATTTGAAGTGGTAATATGACGGAGTCACCTAGTGCAG” here?
Its binding signal is 8520 fluorescence intensity (a.u.).

Which binding signal does the source give for “GAGGCGGGTGATAGCGCGGTGGGGCGGTGGCGGCGGTGGACGGAGTCACCTAGTGCAG” here?
Its binding signal is 13000 fluorescence intensity (a.u.).

With “ATTGTTGGTAGTGTGATCTTCTCCCTGTTTTGCAACAATGCGGAGTCACCTAGTGCAG” as the sequence, how does the binding signal read?
Its binding signal is 8910 fluorescence intensity (a.u.).

Which binding signal does the source give for “GGGTCGTGAAGGAGACGGGGATGGATTTCTACGGGTGCATCGGAGTCACCTAGTGCAG” here?
Its binding signal is 8150 fluorescence intensity (a.u.).

How did the binding signal turn out when “GTGGGGTGGCTTGATTTTTCCTTGAGTGAAATGGGTTGGACGGAGTCACCTAGTGCAG” was run?
Its binding signal is 11800 fluorescence intensity (a.u.).

Which binding signal does the source give for “GGTCAGGAAGCTCAATTTTTTTTTACACGGCATGAAATTCCGGAGTCACCTAGTGCAG” here?
The binding signal was 8630 fluorescence intensity (a.u.).

For “TTACTGCAACTAGTTTTTGATAACCTTTTCACATGAGTTCCGGAGTCACCTAGTGCAG”, which binding signal is on record?
Its binding signal is 8140 fluorescence intensity (a.u.).

With “CCCAAACCTCACCGCCGCTCGATCCCATCCACCGCCCATGCGGAGTCACCTAGTGCAG” as the sequence, how does the binding signal read?
Its binding signal is 10900 fluorescence intensity (a.u.).

Which binding signal does the source give for “GTCCTGGTTGCCCTCGATCCGGCAGTTGAAGAAGATGCTCCGGAGTCACCTAGTGCAG” here?
The binding signal was 8720 fluorescence intensity (a.u.).

With “CCTGGACTCTCTCACTATATTTAACTTCATGACCACTCCGCGGAGTCACCTAGTGCAG” as the sequence, how does the binding signal read?
The binding signal was 13000 fluorescence intensity (a.u.).

“TTATCTCCTGTTTTCTTCTCAGGCTTTGCTAAAACGTGCTCGGAGTCACCTAGTGCAG” was tested. Which binding signal did it give?
The binding signal was 10800 fluorescence intensity (a.u.).

With “CACCCTTACCTTGGCCTCCTGTGCCGCTGCACATATATATCGGAGTCACCTAGTGCAG” as the sequence, how does the binding signal read?
The binding signal was 8130 fluorescence intensity (a.u.).

For “GTTGGGAGGTGATAAAAAGTCTCCGCTTCCACAGCTTTGCCGGAGTCACCTAGTGCAG”, which binding signal is on record?
Its binding signal is 8060 fluorescence intensity (a.u.).

— PMC7819943, “Rice protein-binding microarrays: a tool to detect cis-acting elements near promoter regions in rice”
